# The other results are listed elsewhere or left out. Residues, ends and D or L forms follow the SMILES beside them. *: point of attachment. Cbz = O=C(OCc1ccccc1)*
# Protein sequences, listed by entry. Tags and fused reporters are not part of them. Lines headed by an entry give the natural chain unless they say otherwise; changes in a name come on top.
# UniProt Q6FIF0: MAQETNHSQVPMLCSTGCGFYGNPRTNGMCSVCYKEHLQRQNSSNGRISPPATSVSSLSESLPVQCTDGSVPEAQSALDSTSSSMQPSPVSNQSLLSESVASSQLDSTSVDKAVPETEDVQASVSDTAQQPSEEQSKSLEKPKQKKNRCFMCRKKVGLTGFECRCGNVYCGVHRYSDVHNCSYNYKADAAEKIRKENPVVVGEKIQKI
# UniProt Q96K21: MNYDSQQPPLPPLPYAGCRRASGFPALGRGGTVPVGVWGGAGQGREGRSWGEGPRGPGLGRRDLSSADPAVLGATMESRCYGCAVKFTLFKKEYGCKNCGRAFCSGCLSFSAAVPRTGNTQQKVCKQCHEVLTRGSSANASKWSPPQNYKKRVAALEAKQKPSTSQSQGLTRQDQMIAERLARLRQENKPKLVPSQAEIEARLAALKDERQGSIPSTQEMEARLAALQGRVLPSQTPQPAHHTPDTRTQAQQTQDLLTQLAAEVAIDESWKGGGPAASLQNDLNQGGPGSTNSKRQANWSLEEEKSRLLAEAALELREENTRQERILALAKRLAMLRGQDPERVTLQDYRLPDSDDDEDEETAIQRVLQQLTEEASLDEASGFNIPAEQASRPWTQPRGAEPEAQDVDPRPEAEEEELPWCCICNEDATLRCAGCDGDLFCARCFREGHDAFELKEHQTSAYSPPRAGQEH
# UniProt O95365: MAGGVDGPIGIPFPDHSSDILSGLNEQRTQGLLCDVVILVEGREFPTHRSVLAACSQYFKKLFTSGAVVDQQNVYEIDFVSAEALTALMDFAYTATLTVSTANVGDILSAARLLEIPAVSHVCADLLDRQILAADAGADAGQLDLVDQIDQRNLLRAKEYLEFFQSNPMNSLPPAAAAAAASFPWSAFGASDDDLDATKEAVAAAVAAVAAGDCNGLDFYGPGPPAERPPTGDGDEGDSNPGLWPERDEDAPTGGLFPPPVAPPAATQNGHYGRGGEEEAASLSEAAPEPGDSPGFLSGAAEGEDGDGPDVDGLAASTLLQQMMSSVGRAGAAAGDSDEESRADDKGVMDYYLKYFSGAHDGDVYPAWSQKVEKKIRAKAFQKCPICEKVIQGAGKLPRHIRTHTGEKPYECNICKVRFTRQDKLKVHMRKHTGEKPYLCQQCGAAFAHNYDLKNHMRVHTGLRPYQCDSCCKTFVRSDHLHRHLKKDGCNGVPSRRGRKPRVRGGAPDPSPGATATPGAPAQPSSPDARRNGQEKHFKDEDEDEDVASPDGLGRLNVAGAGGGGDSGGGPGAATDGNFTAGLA
# UniProt Q8N567: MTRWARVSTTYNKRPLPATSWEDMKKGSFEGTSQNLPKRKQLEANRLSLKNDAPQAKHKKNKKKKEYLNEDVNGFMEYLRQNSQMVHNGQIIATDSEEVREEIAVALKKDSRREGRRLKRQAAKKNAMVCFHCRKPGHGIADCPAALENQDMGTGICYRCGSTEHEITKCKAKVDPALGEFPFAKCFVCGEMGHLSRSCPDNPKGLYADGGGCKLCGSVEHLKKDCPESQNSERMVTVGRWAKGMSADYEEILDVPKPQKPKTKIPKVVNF
# UniProt P31946: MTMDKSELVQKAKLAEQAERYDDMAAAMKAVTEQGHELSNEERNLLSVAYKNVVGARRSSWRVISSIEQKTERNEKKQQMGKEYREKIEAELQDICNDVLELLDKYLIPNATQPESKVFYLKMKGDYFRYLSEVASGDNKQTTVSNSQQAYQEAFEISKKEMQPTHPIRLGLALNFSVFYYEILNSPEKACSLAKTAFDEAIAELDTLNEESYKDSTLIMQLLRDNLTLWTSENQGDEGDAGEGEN
# UniProt Q96EC8: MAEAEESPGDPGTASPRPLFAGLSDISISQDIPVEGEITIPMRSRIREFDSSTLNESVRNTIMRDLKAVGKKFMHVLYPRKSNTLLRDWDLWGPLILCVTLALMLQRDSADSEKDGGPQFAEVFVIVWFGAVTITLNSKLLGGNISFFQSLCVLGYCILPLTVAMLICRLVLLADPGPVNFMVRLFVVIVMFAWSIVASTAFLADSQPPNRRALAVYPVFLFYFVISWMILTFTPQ
# UniProt Q969M3: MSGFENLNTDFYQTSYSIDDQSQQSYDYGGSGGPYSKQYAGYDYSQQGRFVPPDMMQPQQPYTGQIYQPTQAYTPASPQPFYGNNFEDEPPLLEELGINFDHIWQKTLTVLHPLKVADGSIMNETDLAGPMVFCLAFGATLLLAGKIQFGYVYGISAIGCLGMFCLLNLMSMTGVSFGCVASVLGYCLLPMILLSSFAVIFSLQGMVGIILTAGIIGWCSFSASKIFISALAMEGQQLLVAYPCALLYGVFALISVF
# UniProt Q9BSR8: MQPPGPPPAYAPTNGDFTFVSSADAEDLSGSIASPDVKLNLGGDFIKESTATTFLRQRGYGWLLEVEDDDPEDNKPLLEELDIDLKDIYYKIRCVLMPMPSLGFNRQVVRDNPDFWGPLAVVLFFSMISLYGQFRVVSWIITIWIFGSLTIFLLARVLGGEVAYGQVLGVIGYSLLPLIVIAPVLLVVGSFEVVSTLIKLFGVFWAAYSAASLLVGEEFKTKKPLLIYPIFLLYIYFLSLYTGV
# UniProt O95159: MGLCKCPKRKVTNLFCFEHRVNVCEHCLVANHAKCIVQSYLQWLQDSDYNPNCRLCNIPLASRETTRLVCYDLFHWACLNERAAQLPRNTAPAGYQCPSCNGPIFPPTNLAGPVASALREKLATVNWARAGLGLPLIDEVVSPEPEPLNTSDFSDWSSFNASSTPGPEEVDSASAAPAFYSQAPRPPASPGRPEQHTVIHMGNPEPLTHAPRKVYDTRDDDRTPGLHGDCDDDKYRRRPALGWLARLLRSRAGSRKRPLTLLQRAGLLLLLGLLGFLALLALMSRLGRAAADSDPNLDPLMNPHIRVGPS
# UniProt Q86WB0: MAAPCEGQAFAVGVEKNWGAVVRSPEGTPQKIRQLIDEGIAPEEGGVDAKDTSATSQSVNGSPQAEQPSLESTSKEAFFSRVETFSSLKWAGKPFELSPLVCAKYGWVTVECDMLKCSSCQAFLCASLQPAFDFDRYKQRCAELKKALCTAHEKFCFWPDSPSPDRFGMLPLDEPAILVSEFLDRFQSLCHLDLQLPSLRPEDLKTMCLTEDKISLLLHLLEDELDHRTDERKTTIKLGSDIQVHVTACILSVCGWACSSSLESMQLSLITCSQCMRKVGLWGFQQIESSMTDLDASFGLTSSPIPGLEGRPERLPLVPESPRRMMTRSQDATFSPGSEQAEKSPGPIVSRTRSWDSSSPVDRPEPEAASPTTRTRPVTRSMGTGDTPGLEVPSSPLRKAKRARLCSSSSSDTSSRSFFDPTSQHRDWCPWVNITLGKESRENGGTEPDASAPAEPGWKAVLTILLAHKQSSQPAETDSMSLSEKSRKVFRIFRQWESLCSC
# UniProt Q9Y2Z4: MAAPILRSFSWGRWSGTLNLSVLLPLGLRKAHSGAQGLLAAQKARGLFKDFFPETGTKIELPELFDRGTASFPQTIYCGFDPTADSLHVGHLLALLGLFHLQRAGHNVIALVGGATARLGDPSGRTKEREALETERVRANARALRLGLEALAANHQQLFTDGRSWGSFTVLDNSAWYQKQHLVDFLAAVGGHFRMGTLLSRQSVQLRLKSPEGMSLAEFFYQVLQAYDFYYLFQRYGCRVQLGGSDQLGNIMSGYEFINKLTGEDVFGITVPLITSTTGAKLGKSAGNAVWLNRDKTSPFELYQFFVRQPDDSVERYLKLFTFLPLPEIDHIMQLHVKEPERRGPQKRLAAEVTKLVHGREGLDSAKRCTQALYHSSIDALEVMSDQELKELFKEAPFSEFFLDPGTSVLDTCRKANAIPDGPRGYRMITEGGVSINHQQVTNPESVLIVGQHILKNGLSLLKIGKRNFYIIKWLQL
# UniProt Q16600: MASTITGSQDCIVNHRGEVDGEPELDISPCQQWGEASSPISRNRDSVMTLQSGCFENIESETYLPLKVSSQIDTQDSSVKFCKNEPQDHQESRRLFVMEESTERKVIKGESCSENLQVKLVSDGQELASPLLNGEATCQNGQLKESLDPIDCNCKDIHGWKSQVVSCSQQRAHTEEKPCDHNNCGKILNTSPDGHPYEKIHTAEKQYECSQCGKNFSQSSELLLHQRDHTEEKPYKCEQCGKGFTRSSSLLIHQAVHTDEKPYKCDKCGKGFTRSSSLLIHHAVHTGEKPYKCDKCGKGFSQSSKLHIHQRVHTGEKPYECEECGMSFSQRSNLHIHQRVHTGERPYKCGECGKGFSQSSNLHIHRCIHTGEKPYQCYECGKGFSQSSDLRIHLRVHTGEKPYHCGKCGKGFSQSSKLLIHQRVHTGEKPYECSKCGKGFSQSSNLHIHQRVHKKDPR
# UniProt P17028: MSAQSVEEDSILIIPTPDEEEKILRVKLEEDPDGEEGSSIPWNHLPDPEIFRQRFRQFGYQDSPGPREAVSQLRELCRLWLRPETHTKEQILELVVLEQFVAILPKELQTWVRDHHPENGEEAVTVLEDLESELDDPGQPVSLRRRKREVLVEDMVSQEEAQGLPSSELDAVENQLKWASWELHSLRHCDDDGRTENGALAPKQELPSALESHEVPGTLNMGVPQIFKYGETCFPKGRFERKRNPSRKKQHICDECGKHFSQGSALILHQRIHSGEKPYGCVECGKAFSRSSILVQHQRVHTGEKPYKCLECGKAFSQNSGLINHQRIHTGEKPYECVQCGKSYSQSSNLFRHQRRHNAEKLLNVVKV
# UniProt Q7Z3T8: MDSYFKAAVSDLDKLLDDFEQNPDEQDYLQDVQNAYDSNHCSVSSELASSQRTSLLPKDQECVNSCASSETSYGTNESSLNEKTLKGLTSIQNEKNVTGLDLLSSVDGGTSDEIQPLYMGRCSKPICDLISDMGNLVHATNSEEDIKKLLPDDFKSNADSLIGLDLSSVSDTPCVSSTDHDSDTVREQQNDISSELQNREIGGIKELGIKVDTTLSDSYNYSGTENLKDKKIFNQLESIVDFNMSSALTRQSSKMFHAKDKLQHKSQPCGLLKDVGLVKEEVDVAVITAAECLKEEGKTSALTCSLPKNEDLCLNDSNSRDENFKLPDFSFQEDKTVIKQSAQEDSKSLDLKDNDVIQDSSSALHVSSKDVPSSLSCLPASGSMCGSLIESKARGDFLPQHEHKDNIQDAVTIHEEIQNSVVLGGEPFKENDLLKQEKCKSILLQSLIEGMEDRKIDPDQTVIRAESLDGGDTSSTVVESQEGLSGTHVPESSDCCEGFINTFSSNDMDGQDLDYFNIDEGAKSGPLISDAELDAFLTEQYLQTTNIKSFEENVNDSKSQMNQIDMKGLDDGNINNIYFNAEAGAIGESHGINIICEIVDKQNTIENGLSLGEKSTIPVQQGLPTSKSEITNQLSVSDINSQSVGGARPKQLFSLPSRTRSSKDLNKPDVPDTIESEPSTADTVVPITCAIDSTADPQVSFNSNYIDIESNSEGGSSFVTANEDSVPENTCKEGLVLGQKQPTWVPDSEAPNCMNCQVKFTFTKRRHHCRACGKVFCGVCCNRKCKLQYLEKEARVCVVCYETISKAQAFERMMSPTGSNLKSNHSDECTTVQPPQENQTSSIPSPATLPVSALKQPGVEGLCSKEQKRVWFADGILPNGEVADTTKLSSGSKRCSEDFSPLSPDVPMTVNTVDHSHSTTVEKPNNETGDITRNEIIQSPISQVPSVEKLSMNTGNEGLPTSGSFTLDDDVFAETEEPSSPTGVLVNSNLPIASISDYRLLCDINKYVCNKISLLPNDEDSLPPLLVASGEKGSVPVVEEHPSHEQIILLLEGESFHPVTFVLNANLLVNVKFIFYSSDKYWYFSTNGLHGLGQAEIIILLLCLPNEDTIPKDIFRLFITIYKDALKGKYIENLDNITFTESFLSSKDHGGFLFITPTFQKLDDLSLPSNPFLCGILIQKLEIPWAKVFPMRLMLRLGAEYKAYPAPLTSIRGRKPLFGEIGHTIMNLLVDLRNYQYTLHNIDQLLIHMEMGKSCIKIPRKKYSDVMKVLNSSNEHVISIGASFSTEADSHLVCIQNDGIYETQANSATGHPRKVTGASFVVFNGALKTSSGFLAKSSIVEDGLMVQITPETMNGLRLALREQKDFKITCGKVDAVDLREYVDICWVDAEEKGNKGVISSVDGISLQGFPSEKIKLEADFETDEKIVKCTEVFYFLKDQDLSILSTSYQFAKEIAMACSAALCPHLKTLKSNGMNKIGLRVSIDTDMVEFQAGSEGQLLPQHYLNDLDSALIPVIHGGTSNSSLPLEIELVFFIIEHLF
# Tests used:
# Assay in all cases: log2 fold change, soluble protein after heating vs DMSO (PISA); higher = thermal stabilisation; K562 cells, 10 uM, 30 min; active = over 0.2 and 3.5 SD of the protein, either way, in both replicates (recomputed)
# [1] = compound: C#Cc1cccc(Nc2ncnc3cc(OCCOC)c(OCCOC)cc23)c1 [erlotinib]
# Summary of the method: (§1)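 K562 cells (2×10^6 cells/mL) were treated with 10 μM compound for 30 min, and aliquots were heated for 3 min over 48°C-58°C. Pooled aliquots were extracted in PBS with 0.5% NP-40 at 4°C, and the supernatant after 21,000xg for 90 min was measured by TMTpro 16plex LC-MS/MS with channel sums equalised. Reported thermal stability, relative to control samples and from duplicates, is a log2 fold change.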
# [2] = compound: C/C(=N\NC(=O)C1=CC(=CC=C1)S(=O)(=O)N2CCOCC2)/C3=C(C=CC(=C3)Cl)O
# Summary of the method: as §1
# [3] = compound: C1=CC(=C(C=C1Cl)C2=NC3=NC=CN=C3C(=N2)NC4=CC=NC=C4)F
# Summary of the method: as §1
# [4] = compound: C1=CC(=CC=C1C2=NC3=C(N2)C=C(C=C3)C(=O)N)OC4=CC=C(C=C4)Cl
# Summary of the method: as §1
# [5] = compound: C1=CC2=C(C=CC(=C2)/C=C\3/C(=O)NC(=NCC4=CC=CS4)S3)N=C1
# Summary of the method: as §1
# [6] = compound: C1=CC2=NC=CN=C2C=C1/C=C/3\C(=O)NC(=O)S3
# Summary of the method: as §1
# [7] = compound: C1=CC=C(C=C1)C2=NC(=C(N2)C3=CC=NC=C3)C4=CC(=C(C=C4)Cl)O
# Summary of the method: as §1
# [8] = compound: C1=CC=C2C(=C1)C3=NNC4=CC=CC(=C43)C2=O
# Summary of the method: as §1
# [9] = compound: C1CCN(C1)C(=O)NC2=CC=CC(=C2)NC3=NC=C(C(=N3)NCCC4=CN=CN4)Br
# Summary of the method: as §1
# [10] = compound: C1CN(CCC1(CC2=CC=C(C=C2)Cl)N)C3=NC=NC4=C3C=CN4
# Summary of the method: as §1
# [11] = compound: C1COCCN1CCN2C3=CC=CC=C3N=C2NC(=O)C4=CC(=CC=C4)[N+](=O)[O-] [IRAK-1-4 Inhibitor I]
# Summary of the method: as §1
# [12] = compound: C=CC(=O)N1CCC[C@@H](n2nc(-c3ccc(Oc4ccccc4)cc3)c3c(N)ncnc32)C1 [ibrutinib]
# Summary of the method: as §1
# [13] = compound: CC(=O)c1cnc2ccc(-c3cc(Cl)c(O)c(Cl)c3)nc2c1N[C@H]1CC[C@H](CN(C)C)CC1
# Summary of the method: as §1
# [14] = compound: CC(C)(C)Cn1c(N)nc2ccc(-c3[nH]c(C(C)(C)C)nc3-c3ccc(F)cc3)nc21 [ralimetinib]
# Summary of the method: as §1
# [15] = compound: CC(C)(O)CC(=O)NCCn1ccc2ncnc(Nc3ccc(Oc4cccc(C(F)(F)F)c4)c(Cl)c3)c21
# Summary of the method: as §1
# [16] = compound: CC(C)C1=C2N=C(C=C(N2N=C1)NCC3=CC=CC=C3)NCCCCCCN
# Summary of the method: as §1
# [17] = compound: CC(C)C[C@@H](C=O)NC(=O)[C@H](CC(C)C)NC(=O)[C@H](CC(C)C)NC(=O)OCc1ccccc1
# Summary of the method: as §1
# [18] = compound: CC(C)N(C[C@H]1O[C@@H](n2cnc3c(N)ncnc32)[C@H](O)[C@@H]1O)[C@H]1C[C@@H](CCc2nc3cc(C(C)(C)C)ccc3[nH]2)C1 [pinometostat]
# Summary of the method: as §1
# [19] = compound: CC1=C(C2=C(C=C1)C(=O)C3=CC=CC=C3N2CCCN)C
# Summary of the method: as §1
# [20] = compound: CC1=C(C(CC(=O)N1)C2=CC=C(C=C2)C(F)(F)F)C(=O)NC3=C(C=C4C(=C3)C=NN4)F
# Summary of the method: as §1
Target,log2 fold change [1],log2 fold change [2],log2 fold change [3],log2 fold change [4],log2 fold change [5],log2 fold change [6],log2 fold change [7],log2 fold change [8],log2 fold change [9],log2 fold change [10],log2 fold change [11],log2 fold change [12],log2 fold change [13],log2 fold change [14],log2 fold change [15],log2 fold change [16],log2 fold change [17],log2 fold change [18],log2 fold change [19],log2 fold change [20]
XPO6 (UniProt Q96QU8),inactive: 0.07,inactive: 0.056,active: -0.465,inactive: -0.055,inactive: 0.093,inactive: -0.15,inactive: -0.01,inactive: -0.008,inactive: 0.087,inactive: 0.02,inactive: -0.131,inactive: 0.246,inactive: -0.038,inactive: 0.083,active: 0.434,inactive: -0.189,inactive: -0.023,active: 0.646,inactive: 0.067,
XPOT (UniProt O43592),inactive: -0.035,inactive: 0.069,inactive: 0.005,inactive: -0.058,inactive: 0.037,inactive: 0.065,inactive: -0.047,inactive: -0.026,inactive: -0.005,inactive: -0.088,inactive: -0.035,inactive: -0.061,inactive: 0.064,inactive: -0.079,inactive: -0.146,active: -0.345,inactive: 0.053,inactive: 0.03,inactive: 0.033,
ZFAND6 (UniProt Q6FIF0),inactive: 0.024,inactive: -0.075,inactive: -0.05,inactive: 0.003,inactive: 0.077,inactive: 0.007,inactive: -0.006,inactive: -0.055,inactive: -0.058,inactive: 0.038,inactive: 0.032,inactive: 0.006,inactive: 0.041,inactive: -0.048,inactive: 0.015,inactive: 0.075,inactive: 0.119,inactive: -0.048,inactive: 0,
ZFYVE19 (UniProt Q96K21),inactive: 0.053,inactive: 0.013,inactive: -0.017,inactive: 0.016,inactive: 0.056,inactive: -0.01,inactive: -0.057,inactive: -0.076,inactive: 0.03,inactive: 0.047,inactive: 0.05,inactive: -0.02,inactive: 0.026,inactive: -0.039,inactive: -0.005,inactive: 0.075,inactive: 0.003,inactive: -0.021,inactive: 0.001,inactive: 0.011
ZBTB7A (UniProt O95365),inactive: -0.249,inactive: 0.02,inactive: -0.128,inactive: 0.057,inactive: 0.223,inactive: 0.015,inactive: 0.024,inactive: 0.21,inactive: -0.254,inactive: -0.002,inactive: -0.144,inactive: 0.087,inactive: -0.132,inactive: 0.138,inactive: 0.199,inactive: 0.132,inactive: 0.023,inactive: -0.075,inactive: -0.23,inactive: -0.096
ZCCHC9 (UniProt Q8N567),inactive: -0.099,inactive: -0.224,inactive: -0.378,inactive: 0.025,inactive: -0.035,inactive: -0.015,inactive: -0.271,inactive: -0.009,inactive: 0.08,inactive: -0.1,inactive: -0.085,inactive: 0.06,inactive: 0.143,inactive: 0.017,inactive: 0.166,inactive: 0.004,inactive: 0.305,inactive: 0.187,inactive: -0.187,
YWHAB (UniProt P31946),inactive: 0.011,inactive: 0.005,inactive: 0.048,inactive: -0.012,inactive: 0.023,inactive: 0.023,inactive: -0.02,inactive: 0.001,inactive: 0.006,inactive: 0.028,inactive: 0.127,inactive: -0.013,inactive: -0.019,inactive: -0.063,inactive: -0.013,inactive: 0.014,inactive: -0.003,inactive: -0.031,inactive: -0.072,
YIPF6 (UniProt Q96EC8),inactive: -0.017,inactive: -0.067,inactive: 0.138,inactive: 0.005,inactive: 0.042,inactive: 0.025,inactive: -0.041,inactive: -0.018,inactive: -0.013,inactive: -0.015,inactive: 0.029,inactive: -0.001,inactive: 0.008,inactive: -0.045,inactive: 0.019,inactive: -0.044,inactive: 0.02,inactive: 0.023,inactive: 0.145,
YIPF5 isoform 3 (UniProt Q969M3),inactive: 0.011,inactive: 0.016,inactive: 0.024,inactive: 0.012,inactive: -0.008,inactive: 0.009,inactive: -0.05,inactive: -0.153,inactive: 0.033,inactive: 0.126,inactive: -0.035,inactive: -0.005,inactive: 0.023,inactive: -0.292,inactive: -0.094,inactive: 0.008,inactive: -0.012,inactive: 0.016,inactive: -0.006,
ZMIZ2 (UniProt Q8NF64),inactive: 0.076,inactive: -0.125,inactive: -0.05,inactive: -0.015,inactive: 0.142,inactive: 0.039,inactive: -0.025,inactive: -0.054,inactive: 0.055,inactive: 0.184,inactive: 0.046,inactive: 0.025,inactive: -0.019,inactive: -0.077,inactive: 0.021,inactive: 0.056,inactive: 0.245,inactive: -0.009,inactive: -0.151,inactive: -0.042
YIPF4 (UniProt Q9BSR8),inactive: 0.004,inactive: -0.06,inactive: -0.014,inactive: -0.039,inactive: -0.006,inactive: 0.04,inactive: -0.054,inactive: 0.033,inactive: -0.033,inactive: -0.016,inactive: 0.093,inactive: 0.009,inactive: -0.197,inactive: -0.099,inactive: -0.012,inactive: -0.032,inactive: -0.016,inactive: -0.031,inactive: 0.215,
ZFPL1 (UniProt O95159),inactive: -0.022,inactive: 0.099,inactive: 0.101,inactive: 0.055,inactive: 0.01,inactive: 0.021,inactive: -0.119,inactive: -0.055,inactive: -0.047,inactive: 0.071,inactive: 0.021,inactive: 0.087,inactive: 0.023,inactive: 0.152,inactive: 0.04,inactive: 0.146,inactive: 0.038,inactive: -0.11,inactive: 0.079,
ZC3HC1 (UniProt Q86WB0),inactive: 0.075,inactive: 0.199,inactive: 0.128,inactive: -0.034,inactive: 0.077,inactive: 0.021,inactive: 0.024,inactive: -0.032,inactive: -0.078,inactive: 0.019,inactive: -0.017,inactive: -0.041,inactive: -0.165,inactive: 0.035,inactive: -0.179,inactive: -0.151,inactive: -0.101,inactive: -0.005,inactive: -0.091,
YARS2 (UniProt Q9Y2Z4),inactive: 0.073,inactive: 0.006,inactive: 0.156,inactive: -0.047,inactive: 0.048,inactive: 0,inactive: 0.074,inactive: 0.145,inactive: -0.093,inactive: 0.03,inactive: -0.075,inactive: -0.048,inactive: -0.062,inactive: 0.015,inactive: -0.236,inactive: -0.057,inactive: 0.075,inactive: -0.049,inactive: 0.135,inactive: -0.175
ZNF239 (UniProt Q16600),inactive: -0.098,inactive: 0.019,inactive: -0.333,inactive: 0.248,inactive: 0.117,inactive: 0.065,inactive: 0.044,inactive: 0.004,inactive: 0.001,inactive: 0.117,inactive: 0.154,inactive: 0.165,inactive: -0.439,inactive: -0.07,inactive: 0.086,inactive: 0.149,inactive: 0.045,inactive: -0.008,inactive: 0.011,
ZNF24 (UniProt P17028),inactive: -0.061,inactive: -0.009,inactive: -0.345,inactive: 0.001,inactive: -0.064,inactive: -0.022,inactive: -0.022,inactive: -0.049,inactive: -0.052,inactive: -0.072,inactive: -0.033,inactive: -0.049,inactive: -0.003,inactive: 0.15,inactive: 0.018,inactive: -0.127,inactive: 0.141,inactive: 0.228,inactive: -0.088,inactive: -0.079
ZFYVE16 (UniProt Q7Z3T8),inactive: 0.028,inactive: 0.049,inactive: 0.044,inactive: 0.01,inactive: 0.032,inactive: 0.025,inactive: 0,inactive: -0.014,inactive: -0.005,inactive: 0.027,inactive: 0.101,inactive: 0.014,inactive: -0.034,inactive: -0.011,inactive: -0.01,inactive: -0.051,inactive: 0.006,inactive: 0.019,inactive: 0.045,inactive: -0.029

# In a second layout: entries from further up
Target	log2 fold change [1]	log2 fold change [2]	log2 fold change [3]	log2 fold change [4]	log2 fold change [5]	log2 fold change [6]	log2 fold change [7]	log2 fold change [8]	log2 fold change [9]	log2 fold change [10]	log2 fold change [11]	log2 fold change [12]	log2 fold change [13]	log2 fold change [14]	log2 fold change [15]	log2 fold change [16]	log2 fold change [17]	log2 fold change [18]	log2 fold change [19]	log2 fold change [20]
XPO6 (UniProt Q96QU8)	inactive: 0.07	inactive: 0.056	active: -0.465	inactive: -0.055	inactive: 0.093	inactive: -0.15	inactive: -0.01	inactive: -0.008	inactive: 0.087	inactive: 0.02	inactive: -0.131	inactive: 0.246	inactive: -0.038	inactive: 0.083	active: 0.434	inactive: -0.189	inactive: -0.023	active: 0.646	inactive: 0.067	
ZFPL1 (UniProt O95159)	inactive: -0.022	inactive: 0.099	inactive: 0.101	inactive: 0.055	inactive: 0.01	inactive: 0.021	inactive: -0.119	inactive: -0.055	inactive: -0.047	inactive: 0.071	inactive: 0.021	inactive: 0.087	inactive: 0.023	inactive: 0.152	inactive: 0.04	inactive: 0.146	inactive: 0.038	inactive: -0.11	inactive: 0.079	

# Reference: the supplement of paper PMC10849652
